About 220 (0.063%) of roughly 350,000 compounds were called active. Inconclusive means that the source gave no clear call. Such entries were picked first, then a sample of the others. The call rests on the fitted dose curve; in most records, active means well fitted activation curve with a large enough effect; inconclusive means small, poorly fitted or top-dose-only effect; inactive means no such curve, though single readings can be large or run the other way. Potencies of inconclusive entries are doubtful fits and often do not repeat.
Assay: qHTS for Activators of Integrin-Mediated Alleviation for Muscular Dystrophy; further: nearly all actives have a fitted effect of over 60% in size;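 on activation: 100% = response of the positive control SU9516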
Details: alpha7betagal myoblasts, beta-gal FDG fluorescence, 48 h; activation: at 38.3 µM (top of the series)
Procedure, shortened: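 alpha7betagal+/- myoblasts (passage 13, 250/well) treated 48 h at 37C with compounds at 1:260 dilution of DMSO stock. Lysed, then beta-galactosidase activity read as FDG fluorescence (ex 480/em 540) after 30 min, with pre-read for autofluorescence.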
Potency means the concentration at half of the fitted maximal effect.

Potency, inactive:
Cc1cc(=O)oc2cc(OC(C)C(=O)O)c(Cl)cc12 (centres undefined), Cc1ccc2oc3nc(C)c(C(=O)O)cc3c(=O)c2c1, CN(c1ccccc1C(=O)Nc1ccc2c(c1)n(C)c(=O)n2C)S(C)(=O)=O, O=C(Cn1cnc2c(nnn2-c2ccccc2)c1=O)N1CCOCC1, Cc1ccc(S(=O)(=O)N2CCOCC2)cc1C(=O)OCC(=O)Nc1ccc2[nH]c(=O)[nH]c2c1, COc1cccc(NC(=S)N(CCCN2CCCC(C)C2)Cc2cccs2)c1 (centres undefined), O=C(c1ccc(N2CCN(CCO)CC2)nc1)N1CCOCC1, O=C(COC(=O)c1cccc2ccccc12)Nc1cccnc1Cl, COc1ccc(-c2csc3ncnc(N4CCN(c5ccccc5O)CC4)c23)cc1, Cc1ccsc1C(=O)C1CCCN(Cc2cccn2-c2ccc(Cl)cn2)C1 (centres undefined), Cc1ccnc(NC(=O)c2cccc(NC(=O)c3ccccc3C)c2)c1, Cc1cc(Cl)ccc1OCc1n[nH]c(=S)n1C1CCCCC1, COc1cc(C2Oc3ccccc3C=C2[N+](=O)[O-])cc(OC)c1OC (centres undefined), CCN1C(=O)C(CC(=O)Nc2ccc(Br)cc2)N(CCCc2ccccc2)C1=S (centres undefined), Cc1ccc(NC(=S)N2CCSC2c2cccs2)cc1 (centres undefined), COc1ccc(C2COc3cc(O)ccc3C2)c(OC)c1O (centres undefined), CC1(C)Cc2c(cnn2-c2ccccc2)C(=O)/C1=N\NC(=O)c1ccccc1N, COc1ccc(NC(=O)Nc2cc(C)ccc2OC)cc1, CCc1nc(SCc2ccc(Br)cc2)n[nH]1

Potency, inconclusive:
c1cncc(CSc2nnc3ccc(-c4ccncc4)nn23)c1 28.2 µM [activator, single point], CC(=O)N(Cc1c(C)nn(-c2ccccc2)c1Cl)c1ccc(Cl)cc1 5.01 µM [activator, single point], CCOC(=O)N1CCN(C(=O)c2cn(C)c3ccc(S(=O)(=O)N4CCOCC4)cc3c2=O)CC1 11.2 µM [activator, single point], CSCCC(NC(=O)c1ccc(Cl)cc1)C(=O)OCC(C)=O (centres undefined) 28.2 µM [activator, single point], Cc1ccccc1CN1CCN(C(=O)c2ccc(S(=O)(=O)NCc3ccco3)cc2)CC1 3.16 µM [activator, single point], N#Cc1sc2nc(C3CC3)cc(-c3ccc(Cl)cc3)c2c1N 12.6 µM [activator, single point], COc1cc(NC(=O)c2cccc3c2C(=O)N(C2CCCCC2)C3)cc(OC)c1OC 3.16 µM [activator, single point], CCOC(=O)c1ccc(-n2nc(C)cc2C)cc1 5.01 µM [activator, full curve, poor fit], CC1CCN(c2nc(N3CCCCC3)nc(N3CCCCC3)n2)CC1 14.1 µM [activator, single point], CCOc1ccc(OCC(=O)OCc2cc(=O)n3cc(Br)ccc3n2)cc1 11.2 µM [activator, partial curve, poor fit], C/C(=N\NC(=O)Cn1ccc(C(F)(F)F)n1)c1ccc2c(c1)OCO2 28.2 µM [activator, single point], O=C(/C=N/NC(=O)c1ccc(Cl)cc1Cl)c1ccccc1 3.16 µM [activator, single point], CCOC(=O)CCN(c1ccccc1)S(=O)(=O)c1ccc(-c2ccc(=O)[nH]n2)s1 28.2 µM [activator, single point], COc1ccc(S(=O)(=O)N2CCC(C(=O)NCc3ccncc3)CC2)cc1Cl 3.55 µM [activator, partial curve, poor fit], Cc1ccc2c(c1)C1CN(C)CCC1N2S(=O)(=O)c1cccc(F)c1 (centres undefined) 3.98 µM [activator, single point], CC1CCCC(NC(=O)c2ccc3c(c2)NC(=O)CS3)C1C (centres undefined) 28.2 µM [activator, single point], COc1ccccc1NC(=O)C1CC(C)OC1=O (centres undefined) 3.16 µM [activator, single point], CCCCNC(=S)N(C)/N=C/c1ccc(OCC(=O)Nc2c(C)cc(C)cc2C)c(OC)c1 2.82 µM [activator, single point], CC(=O)Nc1ccc(CN2CCN(C3CCCC3)C(CCO)C2)cc1 (centres undefined) 28.2 µM [activator, single point], Cc1ccc(OCC(=O)NC(C)c2ccccc2)cc1C (centres undefined) 2.24 µM [activator, partial curve, poor fit], C/C(=N\Nc1ccc2nncn2n1)c1ccccn1 15.8 µM [activator, single point], CC(C)N=C1SC(CC(=O)Nc2ccccc2)C(=O)N1C(C)C (centres undefined) 28.2 µM [activator, single point], COc1ccc(S(=O)(=O)N2CCN(c3ccccc3)CC2)cc1 0.447 µM [activator, partial curve, poor fit], Cc1cc(-c2csc(NC(=O)c3ccc(=O)[nH]c3)n2)c(C)n1Cc1ccco1 1 µM [activator, partial curve, poor fit], Cc1ccc(-c2cc(N)n(-c3ccc(F)cc3)n2)cc1 2.82 µM [activator, full curve, poor fit], COC(=O)c1ccc(COc2cccnc2[N+](=O)[O-])cc1 3.16 µM [activator, partial curve, poor fit], O=C(CCc1nnc(C2CCCCC2)o1)N1CCC(Oc2cccnc2)CC1 3.16 µM [activator, single point], C=CCN1C(=O)C(Cc2ccccc2Cl)SC1=Nc1ccc(C(=O)O)cc1 (centres undefined) 2 µM [activator, partial curve, poor fit], COc1ccc(NC(=O)CN(C)C(=O)c2cc3c(cc2Cl)N2CCCCCC2=NS3(=O)=O)cc1 5.01 µM [activator, single point], CS(=O)(=O)c1ccc(Cl)c(NC(=O)Cc2ccsc2)c1 1.12 µM [activator, partial curve, poor fit], Cc1ccn(CC(=O)O)c(=O)c1 10 µM [activator, partial curve, poor fit], COc1ccc(NC(=O)c2ccc3c(c2)OCO3)cc1 28.2 µM [activator, single point], O=C(Cn1nnc2ccccc21)c1ccc(Cl)cc1 12.6 µM [activator, single point], O=C(NCCc1ccccc1)c1ccc(CS(=O)(=O)c2ccc(Br)cc2)o1 10 µM [activator, partial curve, poor fit], C/C(CC(=O)Nc1cc(C)ccn1)=N\NC(=O)c1cccc(F)c1 5.01 µM [activator, single point], COc1ccc(S(=O)(=O)N2CCc3ccccc32)cc1C(=O)NCc1ccco1 15.8 µM [activator, single point], Cc1nc2sc(C(N)=O)c(N)c2c2c1CCCC2 5.01 µM [activator, single point], CC(=O)Nc1ccccc1C(=O)N1CCN(Cc2ccccc2)CC1 5.01 µM [activator, single point], COc1ccc(S(=O)(=O)N(CC(=O)N2CCN(C)CC2)c2ccc(C)cc2)cc1OC 10 µM [activator, partial curve], O=C(CCC(=O)Nc1ccc(F)cc1)N/N=C/c1cccs1 28.2 µM [activator, single point], O=S(=O)(/C=C/c1ccccc1)N1CCOCC1 5.01 µM [activator, single point], O=C(/C=C/c1ccc(S(=O)(=O)N2CCOCC2)cc1)OCC(=O)c1ccc([N+](=O)[O-])cc1 25.1 µM [activator, single point], CN(c1nc2ccccc2nc1Cl)S(=O)(=O)c1ccccc1 0.794 µM [activator, full curve, poor fit], CS(=O)(=O)N1CCN(c2ccnc3cc(Cl)ccc23)CC1 0.501 µM [activator, full curve, poor fit], COCC(C)NC(=O)c1cc(OC)cc(OC)c1 (centres undefined) 5.01 µM [activator, single point], COc1ccc(CNC(=O)CN(C)S(=O)(=O)c2ccc3c(c2)n(C)c(=O)c(=O)n3C)cc1 12.6 µM [activator, partial curve, poor fit], Cc1ccc(NC(=O)Nn2cnnc2)cc1Cl 5.01 µM [activator, single point], CC1CCCCN1C(=O)c1cc(S(=O)(=O)N2CCOCC2)ccc1Cl (centres undefined) 28.2 µM [activator, single point]

Potency, active:
O=c1[nH]c(C2CCCN(S(=O)(=O)c3ccccc3)C2)nc2c1nnn2Cc1cccc(Cl)c1 (centres undefined) 3.98 µM

activation, inconclusive:
CC[n+]1c(/C=C/c2ccc(N(C)C)cc2)ccc2ccccc21 -54.3% [activator]
